Library screen at single concentrations

Amino acid sequences for entries named in this document (tags omitted). Residues count along the entry.
UniProt Q4DA54, 1-478: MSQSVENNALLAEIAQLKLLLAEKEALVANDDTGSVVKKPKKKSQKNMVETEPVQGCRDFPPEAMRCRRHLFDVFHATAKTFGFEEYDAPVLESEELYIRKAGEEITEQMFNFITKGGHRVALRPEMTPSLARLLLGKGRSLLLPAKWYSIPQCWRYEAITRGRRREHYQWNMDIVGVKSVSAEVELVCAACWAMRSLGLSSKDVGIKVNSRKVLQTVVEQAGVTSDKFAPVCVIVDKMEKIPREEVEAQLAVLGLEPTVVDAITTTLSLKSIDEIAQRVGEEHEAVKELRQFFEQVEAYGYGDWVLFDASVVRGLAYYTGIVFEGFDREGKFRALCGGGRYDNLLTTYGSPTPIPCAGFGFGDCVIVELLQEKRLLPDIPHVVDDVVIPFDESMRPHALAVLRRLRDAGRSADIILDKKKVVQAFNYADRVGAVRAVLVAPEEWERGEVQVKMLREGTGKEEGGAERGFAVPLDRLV
UniProt P9WFT3, whole entry: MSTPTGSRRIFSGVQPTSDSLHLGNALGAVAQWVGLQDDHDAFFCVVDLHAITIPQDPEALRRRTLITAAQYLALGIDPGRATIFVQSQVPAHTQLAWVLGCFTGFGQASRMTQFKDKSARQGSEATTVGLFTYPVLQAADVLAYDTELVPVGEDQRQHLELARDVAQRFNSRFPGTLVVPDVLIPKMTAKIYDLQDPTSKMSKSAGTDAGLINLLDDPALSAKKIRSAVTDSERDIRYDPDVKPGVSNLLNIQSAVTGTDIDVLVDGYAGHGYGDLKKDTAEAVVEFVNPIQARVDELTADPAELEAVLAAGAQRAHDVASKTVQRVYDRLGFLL
UniProt I6X8D2, whole entry: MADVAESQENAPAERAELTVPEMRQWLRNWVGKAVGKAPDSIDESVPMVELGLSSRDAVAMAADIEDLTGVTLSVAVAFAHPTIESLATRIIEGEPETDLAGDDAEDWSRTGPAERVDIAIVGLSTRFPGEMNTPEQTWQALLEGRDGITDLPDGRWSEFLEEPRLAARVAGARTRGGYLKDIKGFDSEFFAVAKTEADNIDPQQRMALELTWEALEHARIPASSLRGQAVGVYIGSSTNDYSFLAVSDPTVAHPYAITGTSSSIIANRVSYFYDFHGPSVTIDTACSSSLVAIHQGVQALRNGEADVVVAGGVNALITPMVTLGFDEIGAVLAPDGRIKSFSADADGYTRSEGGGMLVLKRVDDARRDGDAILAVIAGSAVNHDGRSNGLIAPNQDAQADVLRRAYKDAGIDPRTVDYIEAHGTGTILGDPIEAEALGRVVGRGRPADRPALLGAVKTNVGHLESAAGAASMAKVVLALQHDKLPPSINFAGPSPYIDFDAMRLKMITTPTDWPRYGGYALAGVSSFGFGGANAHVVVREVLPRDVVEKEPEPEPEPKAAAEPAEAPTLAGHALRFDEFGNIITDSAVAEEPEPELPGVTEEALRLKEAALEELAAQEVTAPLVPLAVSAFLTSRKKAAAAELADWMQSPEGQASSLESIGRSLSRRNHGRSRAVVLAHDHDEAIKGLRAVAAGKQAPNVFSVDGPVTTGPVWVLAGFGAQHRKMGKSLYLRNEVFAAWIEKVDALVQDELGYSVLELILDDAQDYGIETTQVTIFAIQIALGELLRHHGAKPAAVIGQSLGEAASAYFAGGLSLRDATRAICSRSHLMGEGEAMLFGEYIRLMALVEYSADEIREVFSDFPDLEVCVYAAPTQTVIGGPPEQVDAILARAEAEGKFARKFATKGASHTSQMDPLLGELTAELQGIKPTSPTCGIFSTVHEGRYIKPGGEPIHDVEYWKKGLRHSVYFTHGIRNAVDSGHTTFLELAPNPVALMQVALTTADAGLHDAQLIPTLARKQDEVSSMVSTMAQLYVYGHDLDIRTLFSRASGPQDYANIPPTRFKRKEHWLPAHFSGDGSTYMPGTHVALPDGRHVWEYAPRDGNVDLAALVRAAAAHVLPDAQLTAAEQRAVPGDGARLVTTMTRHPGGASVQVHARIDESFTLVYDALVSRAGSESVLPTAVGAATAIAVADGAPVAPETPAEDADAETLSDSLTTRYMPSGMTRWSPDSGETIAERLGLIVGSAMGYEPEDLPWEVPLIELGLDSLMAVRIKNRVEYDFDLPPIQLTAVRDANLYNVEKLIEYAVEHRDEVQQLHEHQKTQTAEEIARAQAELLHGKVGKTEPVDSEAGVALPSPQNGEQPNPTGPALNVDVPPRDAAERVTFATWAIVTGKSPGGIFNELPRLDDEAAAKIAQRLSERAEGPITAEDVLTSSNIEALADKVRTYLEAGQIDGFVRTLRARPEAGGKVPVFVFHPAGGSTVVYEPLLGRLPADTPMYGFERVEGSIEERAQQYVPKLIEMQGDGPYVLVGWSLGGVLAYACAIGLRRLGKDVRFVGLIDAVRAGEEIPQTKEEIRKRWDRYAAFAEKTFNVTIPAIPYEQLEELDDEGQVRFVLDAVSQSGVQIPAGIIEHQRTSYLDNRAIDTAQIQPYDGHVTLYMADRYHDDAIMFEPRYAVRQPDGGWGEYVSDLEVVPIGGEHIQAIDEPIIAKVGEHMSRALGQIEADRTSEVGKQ
UniProt Q8IDJ8, 1-583: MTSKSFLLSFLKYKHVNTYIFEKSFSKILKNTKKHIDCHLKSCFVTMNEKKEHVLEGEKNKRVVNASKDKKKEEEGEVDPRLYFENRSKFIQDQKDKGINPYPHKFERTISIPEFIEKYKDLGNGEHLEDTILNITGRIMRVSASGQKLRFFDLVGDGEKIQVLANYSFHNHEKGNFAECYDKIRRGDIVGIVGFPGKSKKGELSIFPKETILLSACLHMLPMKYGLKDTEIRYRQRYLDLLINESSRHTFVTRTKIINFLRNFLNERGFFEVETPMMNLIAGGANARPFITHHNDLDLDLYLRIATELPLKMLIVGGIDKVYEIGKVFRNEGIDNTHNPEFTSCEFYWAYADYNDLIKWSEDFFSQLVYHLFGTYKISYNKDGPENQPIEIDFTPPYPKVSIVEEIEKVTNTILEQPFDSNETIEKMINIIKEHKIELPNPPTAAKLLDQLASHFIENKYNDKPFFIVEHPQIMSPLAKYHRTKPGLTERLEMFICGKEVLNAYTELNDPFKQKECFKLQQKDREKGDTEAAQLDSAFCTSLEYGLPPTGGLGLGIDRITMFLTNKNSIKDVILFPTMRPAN

Source: ChEMBL document CHEMBL3988442, “University of Dundee, Small-Polar-MMV Screening Library” (2021).

TcHisRS: 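Histidine-tRNA ligase, Trypanosoma cruzi CL Brener (UniProt Q4DA54). Enzyme assay of histidyl-tRNA synthetase; the read-out is not stated. Compounds at 30 µM. Higher reads as stronger inhibition (inferred: compounds with an IC50 in retests scored well above the rest). About 69,000 compounds were tested under these conditions; 0.045% (about 31) showed 50% or more at least once.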
MtTrpRS: 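Enzyme assay of tryptophanyl-tRNA synthetase; the read-out is not stated. Target: Tryptophan-tRNA ligase, Mycobacterium tuberculosis (UniProt P9WFT3). Compounds at 10 µM. Higher most likely means stronger inhibition; the record gives no direction and few retests gave an IC50. Of about 65,000 compounds tested this way, about 64 (0.098%) reached 50% or more in at least one test.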
Pks13 thioesterase: 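Enzyme assay of the thioesterase domain of polyketide synthase 13; the read-out is not stated. Target: Polyketide synthase Pks13, Mycobacterium tuberculosis (UniProt I6X8D2). Compounds at 30 µM. The record gives no direction; the compounds picked for IC50 retests had high values, so higher reads as stronger inhibition. Of about 67,000 compounds tested this way, about 300 (0.46%) reached 50% or more in at least one test.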
PfKRS1: 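Lysine-tRNA ligase, Plasmodium falciparum 3D7 (UniProt Q8IDJ8). Enzyme assay of the cytosolic lysyl-tRNA synthetase in 384-well plates, read by luminescence. Concentration: 30 µM. Higher reads as stronger inhibition, judged from the few compounds that gave an IC50. Size under these conditions: about 69,000 compounds, about 49 of them at 50% or above in at least one test.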
Toxoplasma: 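Assay of Toxoplasma gondii numbers, read through their beta-galactosidase reporter with a colour substrate. Concentration: 10 µM. The record gives no direction; the compounds picked for IC50 retests had high values, so higher reads as fewer parasites. Of about 67,000 compounds tested this way, about 260 (0.38%) reached 50% or more in at least one test.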

Each number is a percent effect as filed. The record does not define 0% and 100%; most values in the screen are far below 50% and negative numbers occur (in some assays of this library far below -100). The compounds are a random part of those screened. A dash means the value is not listed here; it may have been measured.

| SMILES | TcHisRS | MtTrpRS | Pks13 thioesterase | PfKRS1 | Toxoplasma |
|---|---|---|---|---|---|
| `CCc1n[nH]c(C2CN(C(=O)c3ccc(Cl)cn3)CCO2)n1` (stereo not drawn) | 0.5714% | 0.2901% | -31.45% | 0.5671% | -23.7% |
| `Cc1ccsc1[C@@H]1CCN(C(=O)CCc2n[nH]c(C)c2C)C[C@H]1O` | -3.96% | 5.542% | -7.352% | 0.9735% | -6.329% |
| `Cc1cc2ccccc2n1CCC(=O)N1CCCC1Cn1cccn1` (stereo not drawn) | -2.521% | 0.2441% | 13.93% | 6.858% | 3.706% |
| `Cc1ccc2c(cnn2CCC(=O)NCc2csc(C3CC3)n2)c1` | 6.186% | 0.08157% | -15.94% | -1.395% | 21.79% |
| `O=C(Cc1ccccc1)N1CCC2(CC(=O)N(c3ccsc3)C2)C1` (stereo not drawn) | 2.674% | 2.251% | 13.55% | 8.827% | 14.16% |
| `CN(C)Cc1ccc(NC(=O)c2nccn3ccnc23)cc1` | 0% | -8.883% | -15.5% | 1.758% | -13.85% |
| `O=C(CC1CCCC1)NCCS(=O)(=O)N1CCN(c2ccccc2)CC1` | -3.704% | -4.021% | -3.683% | 4.675% | -10.41% |
| `CCC1CN(CC(=O)NCC(C)C)CCO1` (stereo not drawn) | -0.5128% | 1.486% | -7.78% | 0.1679% | 17.48% |
| `C=C(C)CN(CC)C(=O)c1cc(F)ccc1N1CCN(C)CC1` | 10% | 1.961% | -10.76% | 2.979% | 5.091% |
| `CCc1nccn1C1CCCN(C(=O)c2ccc3[nH]cnc3c2)C1` (stereo not drawn) | 2.174% | 1.165% | -42% | 2.171% | -1.76% |
| `COCCN1CCC(NCc2ccc(F)cc2F)C1` (stereo not drawn) | 5.143% | 83.39% | -21.77% | 1.729% | 20.42% |
| `Cc1cccc(-c2nc(CN3CCn4c(nnc4C4CC4)C3)no2)c1` | 1.01% | 6.373% | -13.16% | 6.871% | 5.723% |
| `O=C(CCn1cccn1)N1C[C@@H]2CC[C@H](C1)N(Cc1ccccn1)C2=O` | 4.167% | 2.864% | -9.309% | 3.145% | - |
| `O=C(NCCc1cc2nc(-c3ccncc3)ccn2n1)C1CCOCC1` | 0% | -5.805% | 14.25% | -0.3538% | -28.86% |
| `CCOc1c(OC)cc(/C=C/c2ncc(C(=O)NC)s2)cc1OC` | 5.172% | -1.398% | 21.32% | 0.5251% | -3.376% |
| `Cc1ccnc(NC(=O)c2cncc(C3CCNCC3)n2)c1` | 5.385% | -2.106% | -11.65% | 3.051% | - |
| `Cc1nc(CN2CC[C@@H]3O[C@@H](C(=O)N4CCOCC4)C[C@@H]32)cs1` | -0.4808% | -3.814% | -26.79% | 1.763% | - |
| `Cc1cnn(CC2CCCCN2C(=O)c2cccnc2N(C)C)c1` (stereo not drawn) | 2.006% | 15.29% | -25.25% | -2.824% | -2.618% |
| `CC(=O)Nc1nc(C2CCN(C(=O)C3CCC3)CC2)cs1` | 0% | - | 31.97% | 1.671% | 6.683% |
| `Cc1cccc(NC2CCN(C(=O)Nc3cccc4[nH]ccc34)CC2)n1` | 4.511% | 8.419% | -11.91% | 7.739% | - |
| `Cc1cccc(OC2CN(C(=O)C3CC(=O)N(C(C)(C)C)C3)C2)c1` (stereo not drawn) | 5.6% | 0.9213% | -14.78% | -0.5063% | -7.763% |
| `CN(CCNC(=O)c1cnc(-c2ccncc2)nc1)S(C)(=O)=O` | 4% | 2.254% | -19.1% | 2.564% | -41.71% |
| `CCCn1ncc(CN2CCCC(C(=O)c3ccc(SC)cc3)C2)c1C` (stereo not drawn) | 0% | -1.013% | 10.95% | 5.046% | -11.47% |
| `Cc1nn(C)c2nc(N(C)CCN(C)C)sc12` | 1.911% | -1.514% | -38.56% | -3.225% | 1.942% |
| `NC(=O)CC1CCN(C(=O)c2csc(-c3ccccc3F)n2)CC1` | 7.447% | -5.436% | -19.8% | 2.894% | -2.92% |
| `[H][C@]12CC[C@]([H])(CN(c3nccc(C)n3)C1)N(CCOC)C2=O` | - | - | - | - | 18.61% |
| `CC(C)(C)C(=O)N1CCC(c2noc(C3CCC(=O)N3)n2)CC1` (stereo not drawn) | 4.857% | -8.045% | -6.995% | -0.0743% | -8.985% |
| `Cc1oc(C)c(C(=O)NCc2cccc(NC(=O)CN(C)C)c2)c1C` | 1.128% | -1.072% | -17.56% | 2.686% | -55.29% |
| `COc1cccc(CN2CC[C@H](c3nnc(-c4ccco4)o3)C2)c1` | 0% | 7.663% | 20.53% | -3.783% | -7.764% |
| `Cl.O=C(NC1CCCC1)c1cc(C2CCCNC2)n[nH]1` (stereo not drawn) | - | - | - | - | -9.173% |
| `Cc1cccc(OCC2CCCN(C(=O)CCn3ccccc3=O)C2)c1` (stereo not drawn) | -3.004% | 2.807% | -0.5986% | 0.3641% | 18.42% |
| `COc1ccc(-c2n[nH]c(C)c2CC(=O)NCC2CCCO2)cc1` (stereo not drawn) | 9.901% | 3.055% | -12.94% | 0.5661% | - |
| `Cc1csc(CNC(=O)NCC(O)c2cccc(Cl)c2)n1` (stereo not drawn) | 0% | 0.2322% | -6.663% | 3.053% | -3.347% |
| `CC(C)=CCn1ncc(N2CCCCC2)cc1=O` | 5.155% | -5.047% | -24.71% | 0.9863% | -3.084% |
| `O=C(c1cccnc1SCc1ccccc1)N1CC[C@@H](O)C1` | 5.682% | - | -5.905% | 0.3424% | 0.8873% |
| `CC(C)Nc1nc2c(c(N(C)C)n1)CCN(Cc1nccn1C)CC2.O=C(O)C(F)(F)F` | - | - | - | - | 3.766% |
| `Cc1nnc([C@@]23CCO[C@@H]2CCN(Cc2cccc4ccccc24)C3)o1` | -2.513% | - | -13.98% | 0.02388% | - |
| `Cn1ccc(CN2CCC(OCc3ccccc3)CC2)cc1=O` | 2.874% | 16.85% | -23.39% | 0.2223% | 26.27% |
| `Cc1ncc(-c2ccccn2)c(CCNC(=O)CCC2CCCO2)n1` (stereo not drawn) | 6.513% | 2.467% | -8.051% | 1.044% | 5.799% |
| `Cn1cncc1CN1CCCC1c1cncc(Oc2ccc(Cl)cc2)n1` (stereo not drawn) | 6.844% | 6.745% | -16.53% | 2.051% | -4.941% |
| `N#Cc1cccc(CN2CCN(Cc3cscn3)CC2)c1` | 2.521% | -0.08136% | -17.02% | 22.19% | 1.737% |
| `Cn1c(NCC(O)c2ccc(F)cc2F)c(C#N)c(=O)n(C)c1=O` (stereo not drawn) | 2.256% | 4.642% | -26.87% | 7.123% | - |
| `CCCN1CCCN(c2ncccc2C(=O)N2CCCCC2)CC1` | 6.122% | 0.5387% | -3.291% | 3.652% | 3.11% |
| `CS(=O)(=O)NC[C@]12COC[C@H]1CN(Cc1ccc3c(c1)OCO3)C2` | 2.513% | - | -2.423% | 3.366% | - |
| `Cc1[nH]c(=O)[nH]c(=O)c1CN1CCCC(CCc2ccccc2)C1` (stereo not drawn) | 3.333% | 1.78% | -8.508% | 2.197% | -1.962% |
| `O=C(O)C(F)(F)F.[H][C@@]12CCN(Cc3cnn(C)c3)[C@@]1([H])CCN2C(=O)c1cccc(F)c1` | - | - | - | - | -11.54% |
| `Clc1cccc(C(CNCc2cccnc2)N2CCOCC2)c1` (stereo not drawn) | 3.097% | -6.636% | 5.292% | 1% | 10.15% |
| `Cc1cc(C)c(CNC(=O)NCC2CCCOC2)c(=O)[nH]1` (stereo not drawn) | 6.471% | -4.784% | -13.15% | 1.388% | -10.94% |
| `CNc1ncc(CN(C)C2CCN(C(C)C)CC2)cn1` | 1.88% | -3.825% | 5.944% | 1.297% | 21.96% |
| `CCc1nc(CN2CCCC(Cn3nc(C)nc3C)C2)no1` (stereo not drawn) | 5.444% | -0.142% | -0.125% | -0.5648% | -0.04027% |
| `Cc1ccc(N2CCCC3(CCN(C(=O)c4sccc4C)C3)C2)nn1` (stereo not drawn) | 8.247% | -5.315% | -17.03% | -2.965% | 1.344% |
| `COc1cccc(N2CCN(C(=O)C(O)c3cccc(Cl)c3)CC2=O)c1` (stereo not drawn) | 6.667% | -1.316% | -13.89% | 1.203% | -5.77% |
| `O=S(=O)(c1cn[nH]c1)N1C[C@@H](O)[C@H](N2CCc3ccccc3C2)C1` | 6.202% | -5.933% | 7.662% | 2.503% | -16.62% |
| `CCOC(C)C(=O)NCc1ccc(N(C)C)cc1` (stereo not drawn) | 4.956% | -3.887% | -15.62% | -0.05419% | -22.1% |
| `O=C(c1cccnc1N1CCOCC1)N1CCCC(n2cncn2)C1` (stereo not drawn) | 2.353% | 0.52% | -20.82% | -1.094% | -22.01% |
| `CCC(O)Cn1nc(CCSC)nc1-c1ccc2[nH]ccc2c1` (stereo not drawn) | 8.374% | -0.09141% | 2.947% | 4.417% | 4.875% |
| `O=C(CC1CC1)N1CCn2cc(Cn3cccn3)nc2C1.O=C(O)C(F)(F)F` | - | - | - | - | 4.069% |
| `CCCS(=O)(=O)N1CCC2(CCC(=O)N(CCc3ccccc3)C2)CC1` | 16.87% | 1.867% | 7.224% | -0.2666% | -24.93% |
| `CCNc1nc(C)c(C(=O)N(C)Cc2nc(CC)no2)s1` | 3.067% | -4.499% | 0.4879% | 1.188% | 37.17% |
| `O=C1CSC(c2ccc(O)cc2)c2c(n(C3CCOCC3)[nH]c2=O)N1` (stereo not drawn) | 0.5848% | 2.731% | -26.22% | 2.57% | -0.1369% |
| `O=C(CCNC(=O)c1ccccc1N1CCOCC1)NC1CCCC1` | -3.306% | -2.714% | -6.843% | -0.1944% | 5.57% |

3 of the entries, repeated:

* [H][C@]12CC[C@]([H])(CN(c3nccc(C)n3)C1)N(CCOC)C2=O | Toxoplasma: 18.61%
* Cc1oc(C)c(C(=O)NCc2cccc(NC(=O)CN(C)C)c2)c1C | TcHisRS: 1.128%; MtTrpRS: -1.072%; Pks13 thioesterase: -17.56%; PfKRS1: 2.686%; Toxoplasma: -55.29%
* CC(=O)Nc1nc(C2CCN(C(=O)C3CCC3)CC2)cs1 | TcHisRS: 0%; Pks13 thioesterase: 31.97%; PfKRS1: 1.671%; Toxoplasma: 6.683%